Results are given in words; binding and its absence hold for the method and conditions named. In cells and extracts the contact can be indirect. Some entries that bind do so weakly or less than the wild type.
B1: Erlin-1 (protein, UniProt O75477 1-348)
chain: MNMTQARVLVAAVVGLVAVLLYASIHKIEEGHLAVYYRGGALLTSPSGPGYHIMLPFITTFRSVQTTLQTDEVKNVPCGTSGGVMIYIDRIEVVNMLAPYAVFDIVRNYTADYDKTLIFNKIHHELNQFCSAHTLQEVYIELFDQIDENLKQALQKDLNLMAPGLTIQAVRVTKPKIPEAIRRNFELMEAEKTKLLIAAQKQKVVEKEAETERKKAVIEAEKIAQVAKIRFQQKVMEKETEKRISEIEDAAFLAREKAKADAEYYAAHKYATSNKHKLTPEYLELKKYQAIASNSKIYFGSNIPNMFVDSSCALKYSDIRTGRESSLPSKEALEPSGENVIQNKESTG
B2: Erlin-2 (protein, UniProt O94905 1-339)
chain: MAQLGAVVAVASSFFCASLFSAVHKIEEGHIGVYYRGGALLTSTSGPGFHLMLPFITSYKSVQTTLQTDEVKNVPCGTSGGVMIYFDRIEVVNFLVPNAVYDIVKNYTADYDKALIFNKIHHELNQFCSVHTLQEVYIELFDQIDENLKLALQQDLTSMAPGLVIQAVRVTKPNIPEAIRRNYELMESEKTKLLIAAQKQKVVEKEAETERKKALIEAEKVAQVAEITYGQKVMEKETEKKISEIEDAAFLAREKAKADAECYTAMKIAEANKLKLTPEYLQLMKYKAIASNSKIYFGKDIPNMFMDSAGSVSKQFEGLADKLSFGLEDEPLETATKEN

Sequences of proteins named here, by UniProt entry; tags and fusion partners are left off.
UniProt O43353: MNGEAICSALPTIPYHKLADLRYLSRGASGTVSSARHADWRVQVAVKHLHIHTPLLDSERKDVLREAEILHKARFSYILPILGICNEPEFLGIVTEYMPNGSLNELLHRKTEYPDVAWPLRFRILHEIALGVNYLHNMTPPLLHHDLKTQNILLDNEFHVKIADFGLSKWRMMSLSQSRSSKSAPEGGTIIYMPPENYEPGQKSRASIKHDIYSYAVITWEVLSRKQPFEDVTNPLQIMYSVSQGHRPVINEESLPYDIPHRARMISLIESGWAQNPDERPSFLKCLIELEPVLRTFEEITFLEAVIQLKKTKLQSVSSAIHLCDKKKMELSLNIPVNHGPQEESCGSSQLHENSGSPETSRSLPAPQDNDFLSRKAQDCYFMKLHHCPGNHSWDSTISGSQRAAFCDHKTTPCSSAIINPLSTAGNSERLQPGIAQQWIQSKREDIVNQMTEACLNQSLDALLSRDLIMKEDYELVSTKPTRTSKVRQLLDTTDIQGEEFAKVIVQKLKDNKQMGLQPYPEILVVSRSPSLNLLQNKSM
UniProt P62258: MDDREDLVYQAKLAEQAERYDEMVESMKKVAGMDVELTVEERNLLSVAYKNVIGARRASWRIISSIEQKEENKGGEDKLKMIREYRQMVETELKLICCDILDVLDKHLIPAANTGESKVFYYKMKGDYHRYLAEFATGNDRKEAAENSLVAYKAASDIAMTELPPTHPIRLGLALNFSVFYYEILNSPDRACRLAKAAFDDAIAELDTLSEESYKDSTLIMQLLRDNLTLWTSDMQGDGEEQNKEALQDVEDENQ

Assays:
[1] = target: EGFP-RIPK2 (receptor interacting serine/threonine kinase 2) (human) (UniProt O43353); assay: co-IP
[2] = target: endogenous RIPK2 (human (endogenous in HeLa)) (UniProt O43353); assay: co-IP

| Molecule | binding [1] | binding [2] |
| --- | --- | --- |
| 14-3-3ε (endogenous) (from UniProt P62258 1-255) | binds | – |
| B1 | binds | binds |
| B2 | binds | binds |

Source: doi:10.1101/545400
